This is an account of results in PMC4605623.

By UniProt entry, the sequences of proteins in these tests, tags left out. Where a name states a change or a piece, a line headed by the entry shows the natural chain unless it says otherwise.
UniProt P23258: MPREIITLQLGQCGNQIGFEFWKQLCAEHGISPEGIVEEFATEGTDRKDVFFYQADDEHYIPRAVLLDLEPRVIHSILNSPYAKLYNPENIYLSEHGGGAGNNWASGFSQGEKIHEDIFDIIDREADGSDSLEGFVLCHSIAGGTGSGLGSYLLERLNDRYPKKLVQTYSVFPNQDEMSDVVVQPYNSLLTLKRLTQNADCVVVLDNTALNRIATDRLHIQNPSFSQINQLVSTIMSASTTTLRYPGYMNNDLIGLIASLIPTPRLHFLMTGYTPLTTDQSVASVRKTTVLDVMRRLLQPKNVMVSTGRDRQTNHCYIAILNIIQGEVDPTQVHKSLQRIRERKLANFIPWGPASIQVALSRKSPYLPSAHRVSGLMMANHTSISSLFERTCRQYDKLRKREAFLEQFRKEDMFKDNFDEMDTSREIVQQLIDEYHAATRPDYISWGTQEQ

No constants are given. Whether binding was seen depends on the method and setting. Binding seen in cells or lysates may run through a third protein. Binding can be weak; no strength is given. Tags and fused reporters may be left off the sequences shown.

The target of this assay is T1, EGFP-FANCC (GFP-tagged full length FANCC) (UniProt Q00597).
T1 sequence: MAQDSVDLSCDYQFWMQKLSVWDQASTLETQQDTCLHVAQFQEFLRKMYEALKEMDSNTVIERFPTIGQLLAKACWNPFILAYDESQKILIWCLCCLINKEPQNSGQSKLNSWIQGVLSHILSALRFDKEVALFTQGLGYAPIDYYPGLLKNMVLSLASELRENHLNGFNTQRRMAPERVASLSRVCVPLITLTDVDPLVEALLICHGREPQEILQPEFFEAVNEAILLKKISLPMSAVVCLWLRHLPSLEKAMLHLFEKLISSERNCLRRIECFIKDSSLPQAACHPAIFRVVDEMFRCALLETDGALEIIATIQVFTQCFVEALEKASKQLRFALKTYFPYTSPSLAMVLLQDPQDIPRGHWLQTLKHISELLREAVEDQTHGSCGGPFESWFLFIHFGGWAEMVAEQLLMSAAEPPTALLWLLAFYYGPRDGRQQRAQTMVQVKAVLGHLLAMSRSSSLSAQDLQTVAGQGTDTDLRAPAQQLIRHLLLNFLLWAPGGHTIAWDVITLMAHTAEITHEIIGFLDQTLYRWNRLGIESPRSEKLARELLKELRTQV
The experiment in a line: co-IP; lysates of EGFP-FANCC transfected 293T cells (50 mM Tris-HCl, 150 mM NaCl, 1% Triton X-100) immunoprecipitated with anti-GFP or control mouse IgG, Dynabeads; immunoblot with anti-γ-tubulin or anti-FANCC.

Take “endogenous γ-tubulin (from UniProt P23258)”: the binding entry is “binds”.
